Experimental data published in PMC6233515.

Amino acid sequences for entries named in this document (tags omitted). A change or cut given only in a name is not applied to a line headed by its entry.
UniProt P30530: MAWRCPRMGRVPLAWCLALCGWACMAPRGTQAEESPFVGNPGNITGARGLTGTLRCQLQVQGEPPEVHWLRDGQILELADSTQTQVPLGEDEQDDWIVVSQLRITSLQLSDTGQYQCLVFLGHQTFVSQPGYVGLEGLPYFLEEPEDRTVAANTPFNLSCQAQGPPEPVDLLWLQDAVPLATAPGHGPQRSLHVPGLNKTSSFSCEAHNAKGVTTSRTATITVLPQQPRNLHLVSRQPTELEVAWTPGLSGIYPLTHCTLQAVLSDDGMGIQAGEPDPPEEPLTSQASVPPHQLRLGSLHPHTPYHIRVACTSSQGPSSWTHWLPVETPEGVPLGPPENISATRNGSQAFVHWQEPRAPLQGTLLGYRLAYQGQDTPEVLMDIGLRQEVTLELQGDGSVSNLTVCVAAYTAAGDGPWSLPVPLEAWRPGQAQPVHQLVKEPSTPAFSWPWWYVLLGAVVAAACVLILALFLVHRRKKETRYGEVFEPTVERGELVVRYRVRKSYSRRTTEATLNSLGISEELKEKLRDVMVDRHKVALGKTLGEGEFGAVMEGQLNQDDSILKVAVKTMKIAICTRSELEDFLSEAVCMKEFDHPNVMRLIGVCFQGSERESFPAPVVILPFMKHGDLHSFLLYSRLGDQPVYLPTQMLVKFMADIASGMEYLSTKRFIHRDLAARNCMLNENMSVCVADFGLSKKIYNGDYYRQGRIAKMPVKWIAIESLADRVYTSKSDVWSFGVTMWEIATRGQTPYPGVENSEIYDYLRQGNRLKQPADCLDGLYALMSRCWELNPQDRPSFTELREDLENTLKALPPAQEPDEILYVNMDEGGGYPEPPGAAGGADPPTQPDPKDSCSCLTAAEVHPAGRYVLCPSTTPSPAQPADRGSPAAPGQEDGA

Molecular target: T1, Myc-tagged wild-type human Tensin2 (human) (UniProt Q63HR2)
T1 sequence: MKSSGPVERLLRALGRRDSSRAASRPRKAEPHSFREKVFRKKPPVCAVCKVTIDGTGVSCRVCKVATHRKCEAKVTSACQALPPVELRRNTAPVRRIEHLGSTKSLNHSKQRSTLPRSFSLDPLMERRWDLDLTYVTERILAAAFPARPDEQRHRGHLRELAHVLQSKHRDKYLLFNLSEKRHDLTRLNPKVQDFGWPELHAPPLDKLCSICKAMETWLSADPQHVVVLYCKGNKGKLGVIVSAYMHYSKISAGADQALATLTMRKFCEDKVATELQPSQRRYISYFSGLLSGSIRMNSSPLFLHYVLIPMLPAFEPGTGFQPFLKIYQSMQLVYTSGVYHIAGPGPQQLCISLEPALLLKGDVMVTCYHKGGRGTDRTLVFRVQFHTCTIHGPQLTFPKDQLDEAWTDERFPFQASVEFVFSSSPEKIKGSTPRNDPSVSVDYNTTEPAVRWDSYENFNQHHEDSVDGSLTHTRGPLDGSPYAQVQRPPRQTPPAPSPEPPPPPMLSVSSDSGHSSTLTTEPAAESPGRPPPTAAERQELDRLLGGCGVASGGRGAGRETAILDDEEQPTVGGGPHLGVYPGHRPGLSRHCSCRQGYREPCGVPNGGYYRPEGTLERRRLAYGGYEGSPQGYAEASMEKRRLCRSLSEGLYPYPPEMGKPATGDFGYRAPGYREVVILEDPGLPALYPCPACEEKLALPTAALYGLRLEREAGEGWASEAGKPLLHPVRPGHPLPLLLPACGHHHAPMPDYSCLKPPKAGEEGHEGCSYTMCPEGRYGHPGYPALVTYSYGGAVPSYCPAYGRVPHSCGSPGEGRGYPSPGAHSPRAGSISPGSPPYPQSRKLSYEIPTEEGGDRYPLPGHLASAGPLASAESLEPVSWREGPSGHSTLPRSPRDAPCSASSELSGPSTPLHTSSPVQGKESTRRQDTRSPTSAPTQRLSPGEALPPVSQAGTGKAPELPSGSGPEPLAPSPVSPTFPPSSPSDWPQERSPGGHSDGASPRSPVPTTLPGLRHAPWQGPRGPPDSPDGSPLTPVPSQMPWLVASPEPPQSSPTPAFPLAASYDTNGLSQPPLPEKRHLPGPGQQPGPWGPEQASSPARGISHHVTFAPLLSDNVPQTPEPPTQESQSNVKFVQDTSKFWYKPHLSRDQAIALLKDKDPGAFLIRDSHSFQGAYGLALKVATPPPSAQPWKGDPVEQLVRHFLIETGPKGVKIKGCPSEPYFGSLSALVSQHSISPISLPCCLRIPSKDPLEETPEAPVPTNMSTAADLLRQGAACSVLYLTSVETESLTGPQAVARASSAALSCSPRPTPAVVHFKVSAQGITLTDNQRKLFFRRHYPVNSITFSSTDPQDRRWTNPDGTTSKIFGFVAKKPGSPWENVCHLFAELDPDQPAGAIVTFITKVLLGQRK
Assay: co-IP; HEK293T cells transfected with Axl (wild type or mutants) and Myc-TNS2; NETN lysis buffer (150 mM NaCl, 1 mM EDTA, 20 mM Tris-Cl pH 8.0, 0.5% NP-40); reciprocal IP with anti-Myc (9E10) or anti-Axl (C-20) at 4 °C overnight, protein A/G-agarose; Western blot

binding: binds
Substance: Axl Y886F/Y821F double mutant (from UniProt P30530) (receptor)

No constants are given. Whether binding was seen depends on the method and setting. Binding seen in cells or lysates may run through a third protein. Binding can be weak; no strength is given. Tags and fused reporters may be left off the sequences shown.
